According to paper PMC3026782, “The Cytoskeletal Protein Ndel1 Regulates Dynamin 2 GTPase Activity” (PLoS ONE, 2011):
Changes are numbered by the printed parent chain. No constants are given. Whether binding was seen depends on the method and setting. For some assays here: Binding seen in cells or lysates may run through a third protein. Some binding calls cover weakened binding; strength is not graded here. For some assays here: Sequences can lack the tags named with a protein.

Tests used:
[1] = target: T1, GST-fused Dyn2 (UniProt P50570 1-870); experiment: pull-down; GST-fused Dyn2, its GST fragments or GST with His-tagged Ndel1 on Glutathione Sepharose 4 Fast Flow or Ni-NTA Agarose beads; 20 mM HEPES, 150 mM NaCl, 1 mM DTT, 0.1% BSA, 4°C, 2 hours; both purified
T1 sequence (looked up): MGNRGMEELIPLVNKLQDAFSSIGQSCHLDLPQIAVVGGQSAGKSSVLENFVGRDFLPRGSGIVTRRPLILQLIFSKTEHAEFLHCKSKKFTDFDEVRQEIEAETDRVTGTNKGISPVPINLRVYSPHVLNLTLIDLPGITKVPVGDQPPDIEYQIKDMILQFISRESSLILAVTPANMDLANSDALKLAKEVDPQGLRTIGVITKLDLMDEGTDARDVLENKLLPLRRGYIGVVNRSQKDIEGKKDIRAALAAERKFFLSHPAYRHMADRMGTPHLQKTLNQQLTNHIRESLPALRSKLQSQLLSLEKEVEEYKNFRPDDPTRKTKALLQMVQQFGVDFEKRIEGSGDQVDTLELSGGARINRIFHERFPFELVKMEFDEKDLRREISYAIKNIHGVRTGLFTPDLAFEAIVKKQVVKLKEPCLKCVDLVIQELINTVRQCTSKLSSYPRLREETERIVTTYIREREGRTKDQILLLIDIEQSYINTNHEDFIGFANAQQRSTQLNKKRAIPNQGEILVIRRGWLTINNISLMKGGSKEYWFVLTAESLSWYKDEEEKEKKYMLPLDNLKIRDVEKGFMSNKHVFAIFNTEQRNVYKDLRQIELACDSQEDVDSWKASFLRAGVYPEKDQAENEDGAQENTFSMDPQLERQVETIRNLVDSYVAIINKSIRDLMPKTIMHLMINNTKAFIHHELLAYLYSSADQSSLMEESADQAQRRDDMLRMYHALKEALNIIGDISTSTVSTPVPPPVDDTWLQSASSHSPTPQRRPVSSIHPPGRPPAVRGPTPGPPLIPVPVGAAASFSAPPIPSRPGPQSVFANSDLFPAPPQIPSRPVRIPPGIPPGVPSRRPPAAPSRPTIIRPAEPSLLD

[2] = target: T1, GST-fused Dyn2; experiment: far-Western, overlay or dot blot; one purified protein membrane-bound (His-Ndel1, 1 to 2 µg, or GST-Dyn2), overlaid with the other, detected with Dyn2 or Ndel1 antibody; both purified
[3] = target: T2, Ndel1 (human (endogenous in HeLa)) (UniProt Q9GZM8); experiment: co-IP; immunoprecipitation with Ndel1 antibodies from lysates (HeLa cells, CAD cells, rat primary hippocampal neurons, adult mouse cortex); lysis buffer 50 mM Tris-HCl pH 7.4, 150 mM NaCl, 10 mM KCl, 1 mM EDTA, 0.5% NP40, 0.5% Tween-20; controls without antibody or with Myc antibody
T2 sequence: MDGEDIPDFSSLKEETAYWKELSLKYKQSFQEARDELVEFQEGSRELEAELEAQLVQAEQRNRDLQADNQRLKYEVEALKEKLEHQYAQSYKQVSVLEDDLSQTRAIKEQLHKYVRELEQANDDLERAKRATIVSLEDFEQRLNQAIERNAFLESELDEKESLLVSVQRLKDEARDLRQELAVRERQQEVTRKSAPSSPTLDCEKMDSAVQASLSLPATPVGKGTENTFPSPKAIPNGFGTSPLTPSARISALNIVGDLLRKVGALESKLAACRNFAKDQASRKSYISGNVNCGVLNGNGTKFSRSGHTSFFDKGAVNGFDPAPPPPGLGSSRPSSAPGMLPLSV

[4] = target: T3, Ndel1 (mouse, endogenous) (mouse (endogenous in adult mouse cortex and CAD cells)) (UniProt Q9ERR1); experiment: as above
T3 sequence: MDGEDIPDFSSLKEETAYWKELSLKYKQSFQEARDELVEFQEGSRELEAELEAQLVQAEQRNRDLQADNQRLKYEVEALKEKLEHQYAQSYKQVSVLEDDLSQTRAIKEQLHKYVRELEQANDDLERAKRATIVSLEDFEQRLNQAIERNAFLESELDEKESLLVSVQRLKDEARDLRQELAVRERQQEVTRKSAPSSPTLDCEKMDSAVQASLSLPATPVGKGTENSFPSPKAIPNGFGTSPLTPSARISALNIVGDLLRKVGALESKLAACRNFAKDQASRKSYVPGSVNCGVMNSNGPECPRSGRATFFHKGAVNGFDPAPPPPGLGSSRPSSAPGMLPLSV

[5] = target: T4, Ndel1 (rat, endogenous) (rat (endogenous in primary hippocampal neurons)) (UniProt Q78PB6); experiment: as above
T4 sequence: T3 sequence

B1: His-tagged Ndel1 (natural protein, UniProt Q9GZM8 1-345, looked up)
chain: T2 sequence
- binding [1]: binds
- binding [2]: binds

B2: Lis1 (protein, UniProt P43034 1-410)
chain: MVLSQRQRDELNRAIADYLRSNGYEEAYSVFKKEAELDVNEELDKKYAGLLEKKWTSVIRLQKKVMELESKLNEAKEEFTSGGPLGQKRDPKEWIPRPPEKYALSGHRSPVTRVIFHPVFSVMVSASEDATIKVWDYETGDFERTLKGHTDSVQDISFDHSGKLLASCSADMTIKLWDFQGFECIRTMHGHDHNVSSVAIMPNGDHIVSASRDKTIKMWEVQTGYCVKTFTGHREWVRMVRPNQDGTLIASCSNDQTVRVWVVATKECKAELREHEHVVECISWAPESSYSSISEATGSETKKSGKPGPFLLSGSRDKTIKMWDVSTGMCLMTLVGHDNWVRGVLFHSGGKFILSCADDKTLRVWDYKNKRCMKTLNAHEHFVTSLDFHKTAPYVVTGSVDQTVKVWECR
- binding [3]: binds

B3: Dynamin 2 (mouse, endogenous) (protein, UniProt P39054 1-870)
chain: MGNRGMEELIPLVNKLQDAFSSIGQSCHLDLPQIAVVGGQSAGKSSVLENFVGRDFLPRGSGIVTRRPLILQLIFSKTEYAEFLHCKSKKFTDFDEVRQEIEAETDRVTGTNKGISPVPINLRVYSPHVLNLTLIDLPGITKVPVGDQPPDIEYQIKDMILQFISRESSLILAVTPANMDLANSDALKLAKEVDPQGLRTIGVITKLDLMDEGTDARDVLENKLLPLRRGYIGVVNRSQKDIEGKKDIRAALAAERKFFLSHPAYRHMADRMGTPHLQKTLNQQLTNHIRESLPTLRSKLQSQLLSLEKEVEEYKNFRPDDPTRKTKALLQMVQQFGVDFEKRIEGSGDQVDTLELSGGARINRIFHERFPFELVKMEFDEKDLRREISYAIKNIHGVRTGLFTPDLAFEAIVKKQVVKLKEPCLKCVDLVIQELISTVRQCTSKLSSYPRLREETERIVTTYIREREGRTKDQILLLIDIEQSYINTNHEDFIGFANAQQRSTQLNKKRAIPNQGEILVIRRGWLTINNISLMKGGSKEYWFVLTAESLSWYKDEEEKEKKYMLPLDNLKIRDVEKGFMSNKHVFAIFNTEQRNVYKDLRQIELACDSQEDVDSWKASFLRAGVYPEKDQAENEDGAQENTFSMDPQLERQVETIRNLVDSYVAIINKSIRDLMPKTIMHLMINNTKAFIHHELLAYLYSSADQSSLMEESAEQAQRRDDMLRMYHALKEALNIIGDISTSTVSTPVPPPVDDTWLQNTSGHSPTPQRRPVSSVHPPGRPPAVRGPTPGPPLIPMPVGATSSFSAPPIPSRPGPQSVFANNDPFSAPPQIPSRPARIPPGIPPGVPSRRAPAAPSRPTIIRPAEPSLLD
- binding [4]: binds

B4: Dynamin 2 (rat, endogenous) (protein, UniProt P39052 1-870)
chain: B3 chain with K245R, G762S, S817N
- binding [5]: binds
